This is one part of the list. These are raw signals, not scaled to a control.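 In the initial screen, polymyxin B was used at a concentration that permeabilizes Salmonella's outer membrane but not its inner membrane. Maximum growth was set by DMSO wells with or without polymyxin B. Since plates varied, data were ranked per plate, and compounds giving the lowest OD600 advanced as hits.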
System: Salmonella enterica serovar Typhimurium SL1344
Test: bacterial growth OD600 after 18 h with compound and polymyxin B; higher = more bacterial growth (less inhibition)
Conditions: 50 µM, Mueller-Hinton broth

Cc1cc(C)n(-c2cccc(CN(C)C(=O)C3CCC(=O)N(C4CCCC4)C3)c2)n1 (centres undefined)
bacterial growth OD600 (polymyxin B 1 µg/mL): 0.819

COc1cccc(CN2CCNC(=O)C2CC(=O)NCCc2cccnc2)c1OC (centres undefined)
bacterial growth OD600 (polymyxin B 1 µg/mL): 0.75

COc1ccc(C(CC(=O)NCc2ccncn2)c2ccccc2)cc1 (centres undefined)
bacterial growth OD600 (polymyxin B 0.75 µg/mL): 0.836

O=C(CCC(F)(F)F)NC1CC(=O)N(Cc2cccc(F)c2)C1 (centres undefined)
bacterial growth OD600 (polymyxin B 1 µg/mL): 0.903

C=CC[C@@H]1CC=C[C@@H](C)N1C(=O)CCc1nnc(CCc2ccccc2OC)o1
bacterial growth OD600 (polymyxin B 0.75 µg/mL): 0.007

CCOC(=O)C1(CCCc2ccccc2)CCCN(C(=O)c2snnc2C)C1 (centres undefined)
bacterial growth OD600 (polymyxin B 1 µg/mL): 0.966

COCCNc1ccc(-c2nc(Cc3ccc(F)cc3)no2)cn1
bacterial growth OD600 (polymyxin B 1 µg/mL): 0.812

COc1ccc(OC)c(CN2CCN(Cc3ccc(OC)c(C)c3C)C(CCO)C2)c1 (centres undefined)
bacterial growth OD600 (polymyxin B 1 µg/mL): 0.938

Cc1ccccc1CCC1CCCN(C(=O)CCN2CCCC2=O)C1 (centres undefined)
bacterial growth OD600 (polymyxin B 1 µg/mL): 0.965

— the supplement of paper PMC12889115
